Results on 3 molecules are retold here after article PMC3720655.

Protein sequences, listed by entry. Tags and fused reporters are not part of them. Residues count along the entry.
UniProt P29317, residues 24-976: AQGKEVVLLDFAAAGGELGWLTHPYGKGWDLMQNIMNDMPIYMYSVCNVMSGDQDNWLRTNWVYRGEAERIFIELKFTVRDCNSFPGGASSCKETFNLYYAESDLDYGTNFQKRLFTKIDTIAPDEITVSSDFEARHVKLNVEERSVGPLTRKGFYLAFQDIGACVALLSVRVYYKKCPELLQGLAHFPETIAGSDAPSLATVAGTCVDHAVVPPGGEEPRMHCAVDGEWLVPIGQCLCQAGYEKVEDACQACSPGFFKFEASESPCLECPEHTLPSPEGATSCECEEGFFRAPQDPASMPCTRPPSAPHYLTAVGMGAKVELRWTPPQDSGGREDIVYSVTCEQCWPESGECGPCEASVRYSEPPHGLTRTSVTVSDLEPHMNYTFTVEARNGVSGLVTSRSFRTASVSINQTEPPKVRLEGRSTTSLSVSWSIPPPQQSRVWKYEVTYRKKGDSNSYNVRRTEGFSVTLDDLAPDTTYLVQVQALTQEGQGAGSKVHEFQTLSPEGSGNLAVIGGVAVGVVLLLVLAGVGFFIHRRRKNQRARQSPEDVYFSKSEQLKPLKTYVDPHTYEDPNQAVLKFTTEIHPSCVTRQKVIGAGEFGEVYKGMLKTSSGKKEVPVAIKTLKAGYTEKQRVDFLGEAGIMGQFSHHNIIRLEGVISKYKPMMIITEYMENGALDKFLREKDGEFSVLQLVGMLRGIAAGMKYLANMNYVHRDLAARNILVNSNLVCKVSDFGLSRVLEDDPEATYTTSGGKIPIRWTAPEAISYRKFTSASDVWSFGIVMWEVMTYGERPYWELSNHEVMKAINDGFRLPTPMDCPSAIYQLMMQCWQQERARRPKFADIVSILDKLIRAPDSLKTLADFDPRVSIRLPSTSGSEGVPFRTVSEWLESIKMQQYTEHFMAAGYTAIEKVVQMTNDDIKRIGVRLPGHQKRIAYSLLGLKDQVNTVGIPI
UniProt Q14573: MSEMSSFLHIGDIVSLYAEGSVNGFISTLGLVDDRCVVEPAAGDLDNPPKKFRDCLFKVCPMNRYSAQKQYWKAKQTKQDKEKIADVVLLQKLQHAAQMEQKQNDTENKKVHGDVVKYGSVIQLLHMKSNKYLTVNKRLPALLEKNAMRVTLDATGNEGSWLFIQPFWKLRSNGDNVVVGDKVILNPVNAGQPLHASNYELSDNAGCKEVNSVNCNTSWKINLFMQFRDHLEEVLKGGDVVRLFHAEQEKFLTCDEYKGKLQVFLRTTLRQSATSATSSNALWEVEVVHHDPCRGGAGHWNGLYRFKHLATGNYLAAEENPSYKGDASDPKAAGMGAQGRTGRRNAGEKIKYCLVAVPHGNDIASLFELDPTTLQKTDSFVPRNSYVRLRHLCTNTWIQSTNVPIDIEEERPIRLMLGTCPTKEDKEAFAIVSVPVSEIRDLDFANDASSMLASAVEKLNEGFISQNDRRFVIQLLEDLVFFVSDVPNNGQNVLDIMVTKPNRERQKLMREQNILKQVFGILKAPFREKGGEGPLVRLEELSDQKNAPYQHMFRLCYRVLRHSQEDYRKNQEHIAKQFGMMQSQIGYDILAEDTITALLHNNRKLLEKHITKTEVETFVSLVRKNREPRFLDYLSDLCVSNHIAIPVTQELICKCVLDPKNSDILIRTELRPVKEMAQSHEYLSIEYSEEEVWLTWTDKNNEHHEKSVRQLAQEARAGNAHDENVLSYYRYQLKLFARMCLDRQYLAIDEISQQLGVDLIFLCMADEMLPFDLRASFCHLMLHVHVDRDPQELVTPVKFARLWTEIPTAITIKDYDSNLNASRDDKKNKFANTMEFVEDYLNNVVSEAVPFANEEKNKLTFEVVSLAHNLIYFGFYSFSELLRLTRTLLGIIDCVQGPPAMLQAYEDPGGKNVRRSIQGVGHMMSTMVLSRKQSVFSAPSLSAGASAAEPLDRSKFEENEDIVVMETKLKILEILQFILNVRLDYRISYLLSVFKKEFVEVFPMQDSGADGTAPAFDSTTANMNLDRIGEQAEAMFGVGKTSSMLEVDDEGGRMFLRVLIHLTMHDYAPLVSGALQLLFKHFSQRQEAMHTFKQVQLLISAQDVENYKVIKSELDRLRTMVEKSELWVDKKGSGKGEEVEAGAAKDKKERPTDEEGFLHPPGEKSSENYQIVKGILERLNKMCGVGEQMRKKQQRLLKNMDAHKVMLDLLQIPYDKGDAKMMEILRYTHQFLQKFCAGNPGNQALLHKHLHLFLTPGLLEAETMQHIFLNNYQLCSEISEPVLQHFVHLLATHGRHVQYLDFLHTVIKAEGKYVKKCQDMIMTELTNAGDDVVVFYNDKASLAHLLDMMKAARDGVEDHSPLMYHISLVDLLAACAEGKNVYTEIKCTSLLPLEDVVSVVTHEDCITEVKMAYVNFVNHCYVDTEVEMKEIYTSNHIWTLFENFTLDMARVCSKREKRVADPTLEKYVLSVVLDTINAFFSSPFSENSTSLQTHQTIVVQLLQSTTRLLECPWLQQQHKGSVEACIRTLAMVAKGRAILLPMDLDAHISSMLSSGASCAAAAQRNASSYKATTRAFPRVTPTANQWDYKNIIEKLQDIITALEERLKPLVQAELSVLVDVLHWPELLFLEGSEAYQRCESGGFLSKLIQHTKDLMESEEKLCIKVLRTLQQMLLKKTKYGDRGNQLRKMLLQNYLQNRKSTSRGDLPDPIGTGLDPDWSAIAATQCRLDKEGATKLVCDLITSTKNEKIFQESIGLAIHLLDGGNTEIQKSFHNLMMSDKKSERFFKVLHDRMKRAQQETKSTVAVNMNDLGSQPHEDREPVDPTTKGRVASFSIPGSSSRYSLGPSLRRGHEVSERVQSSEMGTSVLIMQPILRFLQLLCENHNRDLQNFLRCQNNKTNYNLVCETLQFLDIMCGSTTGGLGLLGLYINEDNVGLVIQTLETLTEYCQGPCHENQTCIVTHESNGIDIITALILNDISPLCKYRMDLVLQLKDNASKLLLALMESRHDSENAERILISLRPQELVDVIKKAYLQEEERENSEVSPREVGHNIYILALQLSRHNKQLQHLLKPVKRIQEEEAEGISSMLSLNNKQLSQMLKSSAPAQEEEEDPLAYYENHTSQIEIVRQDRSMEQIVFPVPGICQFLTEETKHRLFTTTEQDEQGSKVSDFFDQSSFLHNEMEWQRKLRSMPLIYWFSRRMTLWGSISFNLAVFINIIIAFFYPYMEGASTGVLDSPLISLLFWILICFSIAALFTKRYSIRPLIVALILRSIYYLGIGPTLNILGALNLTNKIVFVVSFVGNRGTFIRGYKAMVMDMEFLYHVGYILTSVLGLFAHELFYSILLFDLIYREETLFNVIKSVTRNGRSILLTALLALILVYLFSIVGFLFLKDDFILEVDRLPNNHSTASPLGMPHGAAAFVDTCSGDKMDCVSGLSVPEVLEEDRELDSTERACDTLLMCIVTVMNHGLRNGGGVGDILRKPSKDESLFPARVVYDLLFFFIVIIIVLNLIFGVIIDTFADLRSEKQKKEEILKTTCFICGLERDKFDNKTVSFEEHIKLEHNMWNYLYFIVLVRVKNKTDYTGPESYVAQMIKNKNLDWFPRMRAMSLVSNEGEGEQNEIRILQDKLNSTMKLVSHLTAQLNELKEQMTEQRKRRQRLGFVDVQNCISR

These are yes or no findings as the source states them, for the method shown. Binding seen in cells or lysates may run through a third protein. Some binding calls cover weakened binding; strength is not graded here. Sequences can lack the tags named with a protein.

Common to all, as to assay: co-IP; validation IP and Western blot; input KIAA1199-Cl.18 extract; anti-KIAA1199 antibody or antibody against the endogenous partner, Protein G or A/G beads; IP lysis buffer 150 mM NaCl, 1% NP-40, 50 mM Tris-HCl pH 8.0, overnight 4°C
For assay [1], the target named is T1, KIAA1199 (untagged, SW480 KIAA1199-Cl.18) (human) (UniProt Q8WUJ3).
T1 sequence: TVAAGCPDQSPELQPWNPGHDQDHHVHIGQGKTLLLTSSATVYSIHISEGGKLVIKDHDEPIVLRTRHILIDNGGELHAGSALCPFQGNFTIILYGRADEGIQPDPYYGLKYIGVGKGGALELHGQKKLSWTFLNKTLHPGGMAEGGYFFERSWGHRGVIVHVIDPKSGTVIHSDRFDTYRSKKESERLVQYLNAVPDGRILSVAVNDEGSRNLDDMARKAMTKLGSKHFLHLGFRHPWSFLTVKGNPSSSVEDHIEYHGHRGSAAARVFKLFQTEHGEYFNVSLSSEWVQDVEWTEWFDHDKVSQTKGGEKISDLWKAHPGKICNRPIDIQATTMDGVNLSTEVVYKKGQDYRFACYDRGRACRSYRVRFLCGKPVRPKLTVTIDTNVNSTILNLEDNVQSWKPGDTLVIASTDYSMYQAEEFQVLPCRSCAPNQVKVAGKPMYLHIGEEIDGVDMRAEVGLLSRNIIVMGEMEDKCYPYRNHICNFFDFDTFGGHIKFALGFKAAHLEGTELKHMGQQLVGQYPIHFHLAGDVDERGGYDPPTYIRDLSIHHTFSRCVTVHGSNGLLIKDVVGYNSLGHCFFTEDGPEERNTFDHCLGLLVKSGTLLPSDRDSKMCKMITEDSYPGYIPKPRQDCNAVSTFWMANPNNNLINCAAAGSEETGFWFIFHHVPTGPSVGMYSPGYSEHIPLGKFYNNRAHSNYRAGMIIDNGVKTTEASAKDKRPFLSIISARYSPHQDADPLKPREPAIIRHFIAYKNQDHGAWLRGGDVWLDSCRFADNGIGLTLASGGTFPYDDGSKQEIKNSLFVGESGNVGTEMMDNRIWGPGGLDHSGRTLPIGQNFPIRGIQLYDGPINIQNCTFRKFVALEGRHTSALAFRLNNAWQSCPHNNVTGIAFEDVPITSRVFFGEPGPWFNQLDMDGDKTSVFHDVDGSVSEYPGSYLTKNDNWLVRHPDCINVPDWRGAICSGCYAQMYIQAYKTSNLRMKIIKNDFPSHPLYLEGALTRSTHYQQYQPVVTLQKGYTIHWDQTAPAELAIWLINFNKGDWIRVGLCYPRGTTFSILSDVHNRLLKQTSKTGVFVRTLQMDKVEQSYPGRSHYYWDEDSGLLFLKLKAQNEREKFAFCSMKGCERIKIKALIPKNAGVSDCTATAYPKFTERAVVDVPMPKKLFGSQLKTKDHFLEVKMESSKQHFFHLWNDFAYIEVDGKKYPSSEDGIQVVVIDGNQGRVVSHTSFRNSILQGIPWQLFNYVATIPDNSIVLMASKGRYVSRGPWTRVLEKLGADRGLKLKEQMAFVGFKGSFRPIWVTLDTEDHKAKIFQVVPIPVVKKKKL

The target in assay [2] is EPHA2 (human (endogenous in SW480)) (UniProt P29317).
Assay [3] addresses ITPR3 (human (endogenous in SW480)) (UniProt Q14573).

As for “EPHA2 (from UniProt P29317 24-976) (receptor)”, the binding entry in assay [1] is on record as “binds weakly”.

For “ITPR3 (from UniProt Q14573 1-2671) (receptor)”, the binding entry in assay [1] is “binds weakly”.

B1: KIAA1199 (untagged, SW480 KIAA1199-Cl.18) (protein, UniProt Q8WUJ3 31-1361)
chain: TVAAGCPDQSPELQPWNPGHDQDHHVHIGQGKTLLLTSSATVYSIHISEGGKLVIKDHDEPIVLRTRHILIDNGGELHAGSALCPFQGNFTIILYGRADEGIQPDPYYGLKYIGVGKGGALELHGQKKLSWTFLNKTLHPGGMAEGGYFFERSWGHRGVIVHVIDPKSGTVIHSDRFDTYRSKKESERLVQYLNAVPDGRILSVAVNDEGSRNLDDMARKAMTKLGSKHFLHLGFRHPWSFLTVKGNPSSSVEDHIEYHGHRGSAAARVFKLFQTEHGEYFNVSLSSEWVQDVEWTEWFDHDKVSQTKGGEKISDLWKAHPGKICNRPIDIQATTMDGVNLSTEVVYKKGQDYRFACYDRGRACRSYRVRFLCGKPVRPKLTVTIDTNVNSTILNLEDNVQSWKPGDTLVIASTDYSMYQAEEFQVLPCRSCAPNQVKVAGKPMYLHIGEEIDGVDMRAEVGLLSRNIIVMGEMEDKCYPYRNHICNFFDFDTFGGHIKFALGFKAAHLEGTELKHMGQQLVGQYPIHFHLAGDVDERGGYDPPTYIRDLSIHHTFSRCVTVHGSNGLLIKDVVGYNSLGHCFFTEDGPEERNTFDHCLGLLVKSGTLLPSDRDSKMCKMITEDSYPGYIPKPRQDCNAVSTFWMANPNNNLINCAAAGSEETGFWFIFHHVPTGPSVGMYSPGYSEHIPLGKFYNNRAHSNYRAGMIIDNGVKTTEASAKDKRPFLSIISARYSPHQDADPLKPREPAIIRHFIAYKNQDHGAWLRGGDVWLDSCRFADNGIGLTLASGGTFPYDDGSKQEIKNSLFVGESGNVGTEMMDNRIWGPGGLDHSGRTLPIGQNFPIRGIQLYDGPINIQNCTFRKFVALEGRHTSALAFRLNNAWQSCPHNNVTGIAFEDVPITSRVFFGEPGPWFNQLDMDGDKTSVFHDVDGSVSEYPGSYLTKNDNWLVRHPDCINVPDWRGAICSGCYAQMYIQAYKTSNLRMKIIKNDFPSHPLYLEGALTRSTHYQQYQPVVTLQKGYTIHWDQTAPAELAIWLINFNKGDWIRVGLCYPRGTTFSILSDVHNRLLKQTSKTGVFVRTLQMDKVEQSYPGRSHYYWDEDSGLLFLKLKAQNEREKFAFCSMKGCERIKIKALIPKNAGVSDCTATAYPKFTERAVVDVPMPKKLFGSQLKTKDHFLEVKMESSKQHFFHLWNDFAYIEVDGKKYPSSEDGIQVVVIDGNQGRVVSHTSFRNSILQGIPWQLFNYVATIPDNSIVLMASKGRYVSRGPWTRVLEKLGADRGLKLKEQMAFVGFKGSFRPIWVTLDTEDHKAKIFQVVPIPVVKKKKL
For the molecule B1, the binding result in assay [2] and in assay [3] was “binds weakly” throughout.
